Consider seven molecules from patent publication US20260266848A1, “COMPOSITIONS AND METHODS FOR DIAGNOSING AND TREATING DYSTONIA” (Duke University, priority 2023, published 2026).

The subject of the data set is DYT1 patient plasma derived EVs. The data set is described as follows: Plasma-derived EV proteomics (ExoQuick ULTRA, DIA LC/MS/MS), DYT1 vs Healthy Controls. To be noted: for Directionality / Log2_FC: Hs. Plasma EVs (DYT1/WT); for Log2_FC: protein level, human patient derived EVs by genotype; for Hs. Plasma EVs (DYT1/WT): directionality of protein change, human plasma derived EVs, DYT1 vs WT(HC); for Mean DYT1 / Mean HC: protein abundance; for Mean DYT1: DYT1 patients; for Mean HC: healthy controls (HC). On the set-up: species or system human. The method, then: Data was obtained for extracellular vesicles using previously acquired samples. The ExoQuick® ULTRA EV Isolation System was used to fractionate and enrich EVs from plasma. Isolated plasma EV samples were then submitted to proteomic analysis by the Duke Proteomics and Metabolomics Core Facility (DPMCF). At the DPMCF, quantitative (LC/MS/MS) was performed on 500 ng of each sample, using an EvoSep One UPLC system coupled to a Thermo Orbitrap Astral high-resolution accurate mass tandem mass spectrometer (Thermo). Briefly, the sample was eluted directly from an Evotip which was subjected to a low organic wash and then subjected to an analytical separation using a 1.7 μm EvoSep 150 um ID×15 cm endurance (EveoSep) column running an SPD30 gradient from approximately 5 to 30% acetonitrile with 0.1% formic acid with a column temperature of 50 C. Data collection on the Orbitrap Astral mass spectrometer was performed in a data-independent acquisition (DIA) mode of acquisition with a r=240,000 (@m/z 200) full MS scan from m/z 380-980 with a target AGC value of 4e5 ions. Fixed DIA, windows of 4 m/z from m/z 380 to 980 DIA MS/MS scans were acquired in the Astral with a target AGC value of 5e4 and a max fill time of 6 ms. HCD collision energy setting of 27% was used for all MS2 scans.

B1: ANO6 (protein, UniProt Q4KMQ2 1-910, looked up)
Anoctamin-6: MKKMSRNVLLQMEEEEDDDDGDIVLENLGQTIVPDLGSLESQHDFRTPEFEEFNGKPDSLFFNDGQRRIDFVLVYEDESRKETNKKGTNEKQRRKRQAYESNLICHGLQLEATRSVLDDKLVFVKVHAPWEVLCTYAEIMHIKLPLKPNDLKNRSSAFGTLNWFTKVLSVDESIIKPEQEFFTAPFEKNRMNDFYIVDRDAFFNPATRSRIVYFILSRVKYQVINNVSKFGINRLVNSGIYKAAFPLHDCKFRRQSEDPSCPNERYLLYREWAHPRSIYKKQPLDLIRKYYGEKIGIYFAWLGYYTQMLLLAAVVGVACFLYGYLNQDNCTWSKEVCHPDIGGKIIMCPQCDRLCPFWKLNITCESSKKLCIFDSFGTLVFAVFMGVWVTLFLEFWKRRQAELEYEWDTVELQQEEQARPEYEARCTHVVINEITQEEERIPFTAWGKCIRITLCASAVFFWILLIIASVIGIIVYRLSVFIVFSAKLPKNINGTDPIQKYLTPQTATSITASIISFIIIMILNTIYEKVAIMITNFELPRTQTDYENSLTMKMFLFQFVNYYSSCFYIAFFKGKFVGYPGDPVYWLGKYRNEECDPGGCLLELTTQLTIIMGGKAIWNNIQEVLLPWIMNLIGRFHRVSGSEKITPRWEQDYHLQPMGKLGLFYEYLEMIIQFGFVTLFVASFPLAPLLALVNNILEIRVDAWKLTTQFRRLVPEKAQDIGAWQPIMQGIAILAVVTNAMIIAFTSDMIPRLVYYWSFSVPPYGDHTSYTMEGYINNTLSIFKVADFKNKSKGNPYSDLGNHTTCRYRDFRYPPGHPQEYKHNIYYWHVIAAKLAFIIVMEHVIYSVKFFISYAIPDVSKRTKSKIQREKYLTQKLLHENHLKDMTKNMGVIAERMIEAVDNNLRPKSE
B1: the Directionality result is “DOWN”, the Log2_FC is on record as -0.7131, the “Hs. Plasma EVs (DYT1/WT)” value is given as “DOWN” and the “Mean DYT1” value is given as 7.713. Moreover, the “Mean HC” value came to 9.33.

B2: MRC2 (protein, UniProt Q9UBG0 31-1479, looked up)
C-type mannose receptor 2: GAPGDAALPEPNVFLIFSHGLQGCLEAQGGQVRVTPACNTSLPAQRWKWVSRNRLFNLGTMQCLGTGWPGTNTTASLGMYECDREALNLRWHCRTLGDQLSLLLGARTSNISKPGTLERGDQTRSGQWRIYGSEEDLCALPYHEVYTIQGNSHGKPCTIPFKYDNQWFHGCTSTGREDGHLWCATTQDYGKDERWGFCPIKSNDCETFWDKDQLTDSCYQFNFQSTLSWREAWASCEQQGADLLSITEIHEQTYINGLLTGYSSTLWIGLNDLDTSGGWQWSDNSPLKYLNWESDQPDNPSEENCGVIRTESSGGWQNRDCSIALPYVCKKKPNATAEPTPPDRWANVKVECEPSWQPFQGHCYRLQAEKRSWQESKKACLRGGGDLVSIHSMAELEFITKQIKQEVEELWIGLNDLKLQMNFEWSDGSLVSFTHWHPFEPNNFRDSLEDCVTIWGPEGRWNDSPCNQSLPSICKKAGQLSQGAAEEDHGCRKGWTWHSPSCYWLGEDQVTYSEARRLCTDHGSQLVTITNRFEQAFVSSLIYNWEGEYFWTALQDLNSTGSFFWLSGDEVMYTHWNRDQPGYSRGGCVALATGSAMGLWEVKNCTSFRARYICRQSLGTPVTPELPGPDPTPSLTGSCPQGWASDTKLRYCYKVFSSERLQDKKSWVQAQGACQELGAQLLSLASYEEEHFVANMLNKIFGESEPEIHEQHWFWIGLNRRDPRGGQSWRWSDGVGFSYHNFDRSRHDDDDIRGCAVLDLASLQWVAMQCDTQLDWICKIPRGTDVREPDDSPQGRREWLRFQEAEYKFFEHHSTWAQAQRICTWFQAELTSVHSQAELDFLSHNLQKFSRAQEQHWWIGLHTSESDGRFRWTDGSIINFISWAPGKPRPVGKDKKCVYMTASREDWGDQRCLTALPYICKRSNVTKETQPPDLPTTALGGCPSDWIQFLNKCFQVQGQEPQSRVKWSEAQFSCEQQEAQLVTITNPLEQAFITASLPNVTFDLWIGLHASQRDFQWVEQEPLMYANWAPGEPSGPSPAPSGNKPTSCAVVLHSPSAHFTGRWDDRSCTEETHGFICQKGTDPSLSPSPAALPPAPGTELSYLNGTFRLLQKPLRWHDALLLCESRNASLAYVPDPYTQAFLTQAARGLRTPLWIGLAGEEGSRRYSWVSEEPLNYVGWQDGEPQQPGGCTYVDVDGAWRTTSCDTKLQGAVCGVSSGPPPPRRISYHGSCPQGLADSAWIPFREHCYSFHMELLLGHKEARQRCQRAGGAVLSILDEMENVFVWEHLQSYEGQSRGAWLGMNFNPKGGTLVWQDNTAVNYSNWGPPGLGPSMLSHNSCYWIQSNSGLWRPGACTNITMGVVCKLPRAEQSSFSPSALPENPAALVVVLMAVLLLLALLTAALILYRRRQSIERGAFEGARYSRSSSSPTEATEKNILVSDMEMNEQQE
B2: the Log2_FC was 1.078, the “Mean DYT1” value worked out at 5.949 and the “Mean HC” value worked out at 4.87.

B3: MPIG6B (protein, UniProt O95866 18-241, looked up)
Megakaryocyte and platelet …: NPGASLDGRPGDRVNLSCGGVSHPIRWVWAPSFPACKGLSKGRRPILWASSSGTPTVPPLQPFVGRLRSLDSGIRRLELLLSAGDSGTFFCKGRHEDESRTVLHVLGDRTYCKAPGPTHGSVYPQLLIPLLGAGLVLGLGALGLVWWLHRRLPPQPIRPLPRFAPLVKTEPQRPVKEEEPKIPGDLDQEPSLLYADLDHLALSRPRRLSTADPADASTIYAVVV
On to B3, for which the “Mean DYT1” value is given as 7.965 and the “Mean HC” value came out at 6.14. For the same molecule, where the note is “DYT1 patients as compared to healthy controls”, the Log2FC was found to be 1.8244.

B4: PSMD12 (protein, UniProt O00232 2-456, looked up)
26S proteasome non-ATPase …: ADGGSERADGRIVKMEVDYSATVDQRLPECAKLAKEGRLQEVIETLLSLEKQTRTASDMVSTSRILVAVVKMCYEAKEWDLLNENIMLLSKRRSQLKQAVAKMVQQCCTYVEEITDLPIKLRLIDTLRMVTEGKIYVEIERARLTKTLATIKEQNGDVKEAASILQELQVETYGSMEKKERVEFILEQMRLCLAVKDYIRTQIISKKINTKFFQEENTEKLKLKYYNLMIQLDQHEGSYLSICKHYRAIYDTPCIQAESEKWQQALKSVVLYVILAPFDNEQSDLVHRISGDKKLEEIPKYKDLLKLFTTMELMRWSTLVEDYGMELRKGSLESPATDVFGSTEEGEKRWKDLKNRVVEHNIRIMAKYYTRITMKRMAQLLDLSVDESEAFLSNLVVNKTIFAKVDRLAGIINFQRPKDPNNLLNDWSQKLNSLMSLVNKTTHLIAKEEMIHNLQ
Take B4: the Directionality entry is listed as “DOWN”, the Log2_FC was -1.06, the “Hs. Plasma EVs (DYT1/WT)” value is given as “DOWN” and the “Mean DYT1” value was 4.269. Further, the “Mean HC” value was determined as 5.33.

B5: ADAMTS19 (protein, UniProt Q8TE59 323-1213, looked up)
A disintegrin and …: YSYKLPQEYNIETVVVADPAMVSYHGADAARRFILTILNMVFNLFQHKSLSVQVNLRVIKLILLHETPPELYIGHHGEKMLESFCKWQHEEFGKKNDIHLEMSTNWGEDMTSVDAAILITRKDFCVHKDEPCDTVGIAYLSGMCSEKRKCIIAEDNGLNLAFTIAHEMGHNMGINHDNDHPSCADGLHIMSGEWIKGQNLGDVSWSRCSKEDLERFLRSKASNCLLQTNPQSVNSVMVPSKLPGMTYTADEQCQILFGPLASFCQEMQHVICTGLWCKVEGEKECRTKLDPPMDGTDCDLGKWCKAGECTSRTSAPEHLAGEWSLWSPCSRTCSAGISSRERKCPGLDSEARDCNGPRKQYRICENPPCPAGLPGFRDWQCQAYSVRTSSPKHILQWQAVLDEEKPCALFCSPVGKEQPILLSEKVMDGTSCGYQGLDICANGRCQKVGCDGLLGSLAREDHCGVCNGNGKSCKIIKGDFNHTRGAGYVEVLVIPAGARRIKVVEEKPAHSYLALRDAGKQSINSDWKIEHSGAFNLAGTTVHYVRRGLWEKISAKGPTTAPLHLLVLLFQDQNYGLHYEYTIPSDPLPENQSSKAPEPLFMWTHTSWEDCDATCGGGERKTTVSCTKIMSKNISIVDNEKCKYLTKPEPQIRKCNEQPCQTRWMMTEWTPCSRTCGKGMQSRQVACTQQLSNGTLIRARERDCIGPKPASAQRCEGQDCMTVWEAGVWSECSVKCGKGIRHRTVRCTNPRKKCVLSTRPREAEDCEDYSKCYVWRMGDWSKCSITCGKGMQSRVIQCMHKITGRHGNECFSSEKPAAYRPCHLQPCNEKINVNTITSPRLAALTFKCLGDQWPVYCRVIREKNLCQDMRWYQRCCETCRDFYAQKLQQKS
For the molecule B5, the “Mean DYT1” value is on record as 10.077 and the “Mean HC” value is reported as 8.43.

B6: RNF216 (protein, UniProt Q9NWF9 1-866, looked up)
E3 ubiquitin-protein ligase …: MEEGNNNEEVIHLNNFHCHRGQEWINLRDGPITISDSSDEERIPMLVTPAPQQHEEEDLDDDVILTEDDSEDDYGEFLDLGPPGISEFTKPSGQTEREPKPGPSHNQAANDIVNPRSEQKVIILEEGSLLYTESDPLETQNQSSEDSETELLSNLGESAALADDQAIEEDCWLDHPYFQSLNQQPREITNQVVPQERQPEAELGRLLFQHEFPGPAFPRPEPQQGGISGPSSPQPAHPLGEFEDQQLASDDEEPGPAFPMQESQEPNLENIWGQEAAEVDQELVELLVKETEARFPDVANGFIEEIIHFKNYYDLNVLCNFLLENPDYPKREDRIIINPSSSLLASQDETKLPKIDFFDYSKLTPLDQRCFIQAADLLMADFKVLSSQDIKWALHELKGHYAITRKALSDAIKKWQELSPETSGKRKKRKQMNQYSYIDFKFEQGDIKIEKRMFFLENKRRHCRSYDRRALLPAVQQEQEFYEQKIKEMAEHEDFLLALQMNEEQYQKDGQLIECRCCYGEFPFEELTQCADAHLFCKECLIRYAQEAVFGSGKLELSCMEGSCTCSFPTSELEKVLPQTILYKYYERKAEEEVAAAYADELVRCPSCSFPALLDSDVKRFSCPNPHCRKETCRKCQGLWKEHNGLTCEELAEKDDIKYRTSIEEKMTAARIRKCHKCGTGLIKSEGCNRMSCRCGAQMCYLCRVSINGYDHFCQHPRSPGAPCQECSRCSLWTDPTEDDEKLIEEIQKEAEEEQKRKNGENTFKRIGPPLEKPVEKVQRVEALPRPVPQNLPQPQMPPYAFAHPPFPLPPVRPVFNNFPLNMGPIPAPYVPPLPNVRVNYDFGPIHMPLEHNLPMHFGPQPRHRF
For B6, the “Mean DYT1” value came to 4.837 and the “Mean HC” value is 2.76.

B7: FAM177A1 (protein, UniProt Q8N128 1-213, looked up)
Protein FAM177A1: MDQEPVGGVERGEAVAASGAAAAAAFGESAGQMSNERGFENVELGVIGKKKKVPRRVIHFVSGETMEEYSTDEDEVDGLEKKDVLPTVDPTKLTWGPYLWFYMLRAATSTLSVCDFLGEKIASVLGISTPKYQYAIDEYYRMKKEEEEEEEENRMSEEAEKQYQQNKLQTDSIVQTDQPETVISSSFVNVNFEMEGDSEVIMESKQNPVSVPP
In the case of B7, the “Mean DYT1” value is 5.304 and the “Mean HC” value is reported as 4.10.
